Data taken from US20150111852A1, “1-Di(sec-butyl)-phosphinoyl-pentane (dapa-2-5) as a topical agent” (priority 2013, published 2015).

System: mouth and throat
Experiment: Sensory activity of ODT-C on volunteers (double-blind, modified ASHRAE scale)
Type: in vivo, human
Conditions: ODT on the tongue
Description: ODT-C. More experiments were conducted to find a smaller tablet, in the range of 40 to 60 mg, with a disintegration of <10 sec. These paraemters might achieve a better pharmacological effect. ODT-B was 100 mg in size and disintegrated in <20 sec. […] For example, to 1.5 g of DAPA-2-5 is added 1.5 g of absolute ethanol, followed by 2.0 g of Neusilin US2. The mixture is shaken or mixed in a Speedmixer at 500 rpm for 1 min. The sample is placed under a heat source and about 2 hr later, the sample size is re-weighed with the expectation that the ethanol has been evaporated and the sample now weights 3.5 g. This powder is free-flowing. • b. a sample of maltitol powder is prepared (Maltisorb® P200 from Roquette). • c. a sample of Prosolv® EasyTab is prepared (JRS Pharma, Rosenburg, Germany). • d. a blend of a. [2.80 g], b. [15.73 g] and c. [31.46 g] is prepared to make 1000 ODT tablets, each weighing 50 mg and containing 1.2 mg of DAPA-2-5. • e. the blend is first shaken by hand, then placed for 2 min in a SpeedMixer at 500 rpm. The blend is poured into the funnel of a New Single Punch Tablet Press Pill Making Machine Maker TDP-1-5 [available from Amazon.com] and the extruded tablets are collected.
ODT-C, described in Study 2, were tested for sensory properties on 4 volunteers, with at least 3 trials per compound and at 1.2 to 1.5 mg per ODT. The ODT was placed on the mid-line posterior dorsal surface of the tongue and sensory effects recorded for 30 min on a standardized form […]. The ODT were coded and administered on a double-blind basis. A modified ASHRAE scale of neutral, slightly cool [-1], cool [-2], cold [-3], and icy cold [-4] was used to rank the peak heat abstraction sensations in the mouth and throat. Other perceived effects, e.g. taste and duration, were also noted.

SMILES | taste
CCCCCCP(=O)(C(C)C)C(C)C [DAPA-1-6, 1-Di(isopropyl)-phosphinoyl-hexane] | unpleasant taste
CCCCCCCP(=O)(C(C)C)C(C)C [DAPA-1-7, 1-Di(isopropyl)-phosphinoyl-heptane] | unpleasant taste
CCCCCCCCP(=O)(C(C)C)C(C)C [DAPA-1-8, 1-Di(isopropyl)-phosphinoyl-octane] | unpleasant taste
CCCCCP(=O)(C(C)CC)C(C)CC (stereo not shown) [DAPA-2-5, 1-Di(sec-butyl)-phosphinoyl-pentane] | slight organic sweetish taste
CCCCCCP(=O)(C(C)CC)C(C)CC (stereo not shown) [DAPA-2-6, 1-Di(sec-butyl) phosphinoyl-hexane] | unpleasant taste
CCCCCCCP(=O)(C(C)CC)C(C)CC (stereo not shown) [DAPA-2-7, 1-Di(sec-butyl) phosphinoyl-heptane] | unpleasant taste
CCCCCCCCP(=O)(C(C)CC)C(C)CC (stereo not shown) [DAPA-2-8, 1-Di(sec-butyl) phosphinoyl-octane] | unpleasant tastes were especially prominent
